Amino acid sequences for entries named in this document (tags omitted). Residues count along the entry.
UniProt P05106, 27-788 limits assumed: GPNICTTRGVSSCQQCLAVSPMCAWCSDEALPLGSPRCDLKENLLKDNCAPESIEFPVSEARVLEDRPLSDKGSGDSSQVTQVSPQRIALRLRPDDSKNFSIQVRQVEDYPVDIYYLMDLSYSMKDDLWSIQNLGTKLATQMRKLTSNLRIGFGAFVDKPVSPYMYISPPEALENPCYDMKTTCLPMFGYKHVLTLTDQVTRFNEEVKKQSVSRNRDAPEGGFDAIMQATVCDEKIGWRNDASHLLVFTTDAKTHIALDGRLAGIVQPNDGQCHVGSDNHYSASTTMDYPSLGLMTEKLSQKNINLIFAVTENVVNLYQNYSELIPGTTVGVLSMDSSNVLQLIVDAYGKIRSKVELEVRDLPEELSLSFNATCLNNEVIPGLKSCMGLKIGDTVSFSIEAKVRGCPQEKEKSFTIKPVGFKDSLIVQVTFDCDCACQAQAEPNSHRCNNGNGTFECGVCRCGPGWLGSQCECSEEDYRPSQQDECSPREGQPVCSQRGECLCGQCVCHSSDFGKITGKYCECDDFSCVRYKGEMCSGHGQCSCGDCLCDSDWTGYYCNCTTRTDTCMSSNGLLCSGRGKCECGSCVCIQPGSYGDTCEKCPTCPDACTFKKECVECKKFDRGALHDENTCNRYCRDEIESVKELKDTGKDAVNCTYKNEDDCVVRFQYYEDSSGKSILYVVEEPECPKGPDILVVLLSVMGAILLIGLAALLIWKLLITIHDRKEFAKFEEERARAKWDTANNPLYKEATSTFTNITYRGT
UniProt P08514, 32-887 limits assumed: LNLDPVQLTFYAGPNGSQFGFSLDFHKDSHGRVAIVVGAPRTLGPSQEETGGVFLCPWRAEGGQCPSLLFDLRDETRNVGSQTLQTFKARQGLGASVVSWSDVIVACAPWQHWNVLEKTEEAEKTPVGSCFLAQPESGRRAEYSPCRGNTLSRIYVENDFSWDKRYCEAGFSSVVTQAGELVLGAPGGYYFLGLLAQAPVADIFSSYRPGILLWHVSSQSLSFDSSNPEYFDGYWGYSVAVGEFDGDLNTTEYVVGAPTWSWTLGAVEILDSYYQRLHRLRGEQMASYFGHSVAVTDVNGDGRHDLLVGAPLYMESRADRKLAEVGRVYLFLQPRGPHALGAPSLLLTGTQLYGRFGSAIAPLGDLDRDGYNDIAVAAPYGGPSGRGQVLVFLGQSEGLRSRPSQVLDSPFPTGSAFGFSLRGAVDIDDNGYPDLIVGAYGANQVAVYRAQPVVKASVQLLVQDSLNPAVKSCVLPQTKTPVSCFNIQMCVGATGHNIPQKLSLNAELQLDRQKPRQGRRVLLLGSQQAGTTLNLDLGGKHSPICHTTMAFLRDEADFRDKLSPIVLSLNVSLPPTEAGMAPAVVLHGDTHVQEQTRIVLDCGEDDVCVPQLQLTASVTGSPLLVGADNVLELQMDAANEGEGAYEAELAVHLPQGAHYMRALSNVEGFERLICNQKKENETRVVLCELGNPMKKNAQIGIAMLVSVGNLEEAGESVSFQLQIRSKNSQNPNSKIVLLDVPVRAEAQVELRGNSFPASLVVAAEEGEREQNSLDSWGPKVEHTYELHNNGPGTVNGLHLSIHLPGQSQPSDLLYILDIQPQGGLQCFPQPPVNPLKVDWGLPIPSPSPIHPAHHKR

In patent US6448269B1 (Eli Lilly and Company, priority 1993, dated 2002):

Columns and labels:
[1] = system: human platelet-rich plasma; assay: Platelet aggregation assay (Aggregation-Human PRP/ADP); conditions: read-out: Agg: Human PRP/ADP IC50uM; human platelet-rich plasma incubated with compound 1 minute at 37° C.; ADP-induced aggregation
GPIIb-IIIa = GPIIb-IIIa (Homo sapiens, UniProt P05106+P08514); assay: ELISA IIb-IIIa assay (fibrinogen binding to immobilized GPIIb-IIIa); conditions: read-out: ELISA IIb/IIIa IC50 uM; purified platelet GPIIb-IIIa receptor coated on ELISA plates; biotin-labeled fibrinogen 10 nM, 3 hours at 25° C.

Work on `CC1(CCC(=O)O)CCc2cc(NC(=O)c3ccc(C(N)=O)cc3)ccc2O1` (racemic) yielded an IC50 [1] of 40 µM and an IC50 (GPIIb-IIIa) of 1.16 µM.

Structures were worked out from names or drawings and are uncertain.
